Measurements from the supplement of paper PMC10849652.
Some of the results follow.

Amino acid sequences for entries named in this document (tags omitted). A change or cut given only in a name is not applied to a line headed by its entry.
UniProt Q92503: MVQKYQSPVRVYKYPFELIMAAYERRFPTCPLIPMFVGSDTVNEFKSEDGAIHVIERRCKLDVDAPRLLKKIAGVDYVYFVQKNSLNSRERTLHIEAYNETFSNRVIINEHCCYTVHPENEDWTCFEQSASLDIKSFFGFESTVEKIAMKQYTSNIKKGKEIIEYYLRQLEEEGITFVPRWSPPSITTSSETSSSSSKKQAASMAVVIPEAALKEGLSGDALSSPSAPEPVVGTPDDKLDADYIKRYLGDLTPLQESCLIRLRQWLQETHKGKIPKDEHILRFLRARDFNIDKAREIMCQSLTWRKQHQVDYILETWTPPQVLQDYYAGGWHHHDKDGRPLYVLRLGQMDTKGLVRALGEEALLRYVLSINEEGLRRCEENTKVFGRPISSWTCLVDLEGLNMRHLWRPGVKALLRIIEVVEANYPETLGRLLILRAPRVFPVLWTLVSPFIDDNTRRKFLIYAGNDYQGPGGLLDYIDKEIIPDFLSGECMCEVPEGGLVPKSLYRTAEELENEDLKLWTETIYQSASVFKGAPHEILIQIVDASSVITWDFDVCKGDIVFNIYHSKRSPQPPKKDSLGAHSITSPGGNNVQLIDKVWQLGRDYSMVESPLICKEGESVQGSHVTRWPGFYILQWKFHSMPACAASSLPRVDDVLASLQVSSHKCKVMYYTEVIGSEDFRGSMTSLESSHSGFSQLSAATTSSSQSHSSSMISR
UniProt P60896: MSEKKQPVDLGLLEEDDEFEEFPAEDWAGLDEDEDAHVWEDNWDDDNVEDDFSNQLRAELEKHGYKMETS
UniProt O75556: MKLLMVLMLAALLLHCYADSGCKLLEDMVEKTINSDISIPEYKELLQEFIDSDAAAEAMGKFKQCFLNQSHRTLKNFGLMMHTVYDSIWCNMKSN
UniProt Q14242: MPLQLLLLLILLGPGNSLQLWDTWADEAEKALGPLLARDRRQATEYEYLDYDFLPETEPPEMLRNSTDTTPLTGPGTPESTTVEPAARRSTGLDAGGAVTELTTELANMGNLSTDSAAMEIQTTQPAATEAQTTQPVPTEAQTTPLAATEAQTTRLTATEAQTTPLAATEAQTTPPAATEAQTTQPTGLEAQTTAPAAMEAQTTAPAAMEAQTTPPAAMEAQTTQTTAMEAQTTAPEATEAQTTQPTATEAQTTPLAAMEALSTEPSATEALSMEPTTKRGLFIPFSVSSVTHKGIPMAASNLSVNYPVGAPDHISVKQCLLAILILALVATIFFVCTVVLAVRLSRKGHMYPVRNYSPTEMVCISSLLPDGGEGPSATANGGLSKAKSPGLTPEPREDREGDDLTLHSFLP
UniProt Q9HAJ7: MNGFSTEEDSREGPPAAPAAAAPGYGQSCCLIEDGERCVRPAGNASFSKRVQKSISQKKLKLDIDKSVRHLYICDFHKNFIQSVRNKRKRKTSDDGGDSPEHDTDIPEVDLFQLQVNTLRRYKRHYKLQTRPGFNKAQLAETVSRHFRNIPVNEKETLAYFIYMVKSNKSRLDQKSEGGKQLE
UniProt Q9HC62: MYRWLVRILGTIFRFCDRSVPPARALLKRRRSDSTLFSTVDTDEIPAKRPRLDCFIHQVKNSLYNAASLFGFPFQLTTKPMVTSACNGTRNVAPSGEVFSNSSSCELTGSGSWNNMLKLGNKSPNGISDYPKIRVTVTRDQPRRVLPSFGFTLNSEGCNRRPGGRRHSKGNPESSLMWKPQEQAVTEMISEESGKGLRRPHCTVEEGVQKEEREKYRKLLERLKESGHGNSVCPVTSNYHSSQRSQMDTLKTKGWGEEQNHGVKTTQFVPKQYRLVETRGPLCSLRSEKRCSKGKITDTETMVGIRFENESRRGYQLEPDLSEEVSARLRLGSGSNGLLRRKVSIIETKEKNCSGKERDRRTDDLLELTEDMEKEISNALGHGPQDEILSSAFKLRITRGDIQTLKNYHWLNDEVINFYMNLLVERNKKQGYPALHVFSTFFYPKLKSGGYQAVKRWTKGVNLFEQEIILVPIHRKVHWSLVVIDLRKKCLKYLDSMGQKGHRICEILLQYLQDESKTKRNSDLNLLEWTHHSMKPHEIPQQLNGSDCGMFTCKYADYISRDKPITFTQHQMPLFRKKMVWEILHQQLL
UniProt Q8IZE3: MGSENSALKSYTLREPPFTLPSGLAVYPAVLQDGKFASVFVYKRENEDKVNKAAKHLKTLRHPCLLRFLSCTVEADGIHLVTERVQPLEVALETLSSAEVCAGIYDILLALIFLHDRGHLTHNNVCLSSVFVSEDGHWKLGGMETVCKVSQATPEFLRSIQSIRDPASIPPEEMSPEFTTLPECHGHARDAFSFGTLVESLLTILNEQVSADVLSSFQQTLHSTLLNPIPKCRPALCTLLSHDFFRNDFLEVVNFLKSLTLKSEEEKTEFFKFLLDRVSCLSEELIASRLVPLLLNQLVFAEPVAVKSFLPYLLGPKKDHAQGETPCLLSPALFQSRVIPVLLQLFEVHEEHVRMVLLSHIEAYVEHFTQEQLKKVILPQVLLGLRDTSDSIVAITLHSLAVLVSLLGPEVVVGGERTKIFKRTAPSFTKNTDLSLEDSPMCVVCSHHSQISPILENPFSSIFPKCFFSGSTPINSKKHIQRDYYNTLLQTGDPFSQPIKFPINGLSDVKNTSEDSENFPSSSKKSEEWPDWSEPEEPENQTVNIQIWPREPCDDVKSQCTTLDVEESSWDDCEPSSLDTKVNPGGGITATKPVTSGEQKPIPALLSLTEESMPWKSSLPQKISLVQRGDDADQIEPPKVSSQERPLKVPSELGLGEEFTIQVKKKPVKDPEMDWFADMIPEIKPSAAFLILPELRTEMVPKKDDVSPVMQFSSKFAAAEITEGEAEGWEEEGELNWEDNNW
UniProt Q9NZV5, whole entry, looked up: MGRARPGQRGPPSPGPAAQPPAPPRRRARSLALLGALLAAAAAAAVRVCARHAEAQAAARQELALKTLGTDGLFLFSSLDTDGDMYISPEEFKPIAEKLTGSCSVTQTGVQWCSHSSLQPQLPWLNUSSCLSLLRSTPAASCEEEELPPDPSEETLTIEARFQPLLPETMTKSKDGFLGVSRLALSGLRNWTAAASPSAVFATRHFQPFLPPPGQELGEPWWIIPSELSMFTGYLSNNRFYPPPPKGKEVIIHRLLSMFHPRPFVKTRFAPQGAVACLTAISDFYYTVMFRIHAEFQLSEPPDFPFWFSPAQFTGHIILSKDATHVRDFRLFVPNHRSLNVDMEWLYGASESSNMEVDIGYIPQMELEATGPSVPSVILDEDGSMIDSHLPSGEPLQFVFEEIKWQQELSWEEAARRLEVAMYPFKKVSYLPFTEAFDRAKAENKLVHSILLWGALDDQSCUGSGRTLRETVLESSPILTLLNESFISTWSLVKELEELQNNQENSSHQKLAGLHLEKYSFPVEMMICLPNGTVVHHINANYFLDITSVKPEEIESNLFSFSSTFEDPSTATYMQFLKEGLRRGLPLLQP
UniProt Q9NTN9: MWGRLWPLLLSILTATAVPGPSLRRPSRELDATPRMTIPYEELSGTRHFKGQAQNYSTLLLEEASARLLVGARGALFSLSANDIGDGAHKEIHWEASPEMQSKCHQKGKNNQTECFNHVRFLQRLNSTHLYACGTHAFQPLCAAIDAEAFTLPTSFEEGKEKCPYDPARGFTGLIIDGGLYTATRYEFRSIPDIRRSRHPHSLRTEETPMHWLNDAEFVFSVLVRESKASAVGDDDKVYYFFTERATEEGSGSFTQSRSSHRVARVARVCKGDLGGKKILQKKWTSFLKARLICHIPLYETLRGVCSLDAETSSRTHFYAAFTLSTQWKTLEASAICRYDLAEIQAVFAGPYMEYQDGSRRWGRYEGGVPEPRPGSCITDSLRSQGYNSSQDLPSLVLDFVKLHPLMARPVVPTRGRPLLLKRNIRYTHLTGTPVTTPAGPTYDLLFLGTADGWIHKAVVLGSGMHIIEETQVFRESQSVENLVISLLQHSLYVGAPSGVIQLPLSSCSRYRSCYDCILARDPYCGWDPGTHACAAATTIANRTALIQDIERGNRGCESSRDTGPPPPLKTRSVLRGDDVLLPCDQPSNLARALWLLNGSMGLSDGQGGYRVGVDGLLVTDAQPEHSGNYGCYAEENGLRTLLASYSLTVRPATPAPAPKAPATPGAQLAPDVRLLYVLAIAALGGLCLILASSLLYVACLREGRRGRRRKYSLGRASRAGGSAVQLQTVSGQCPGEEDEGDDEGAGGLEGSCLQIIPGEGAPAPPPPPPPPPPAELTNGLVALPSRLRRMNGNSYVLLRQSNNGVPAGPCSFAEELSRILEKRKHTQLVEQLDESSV
UniProt O15027: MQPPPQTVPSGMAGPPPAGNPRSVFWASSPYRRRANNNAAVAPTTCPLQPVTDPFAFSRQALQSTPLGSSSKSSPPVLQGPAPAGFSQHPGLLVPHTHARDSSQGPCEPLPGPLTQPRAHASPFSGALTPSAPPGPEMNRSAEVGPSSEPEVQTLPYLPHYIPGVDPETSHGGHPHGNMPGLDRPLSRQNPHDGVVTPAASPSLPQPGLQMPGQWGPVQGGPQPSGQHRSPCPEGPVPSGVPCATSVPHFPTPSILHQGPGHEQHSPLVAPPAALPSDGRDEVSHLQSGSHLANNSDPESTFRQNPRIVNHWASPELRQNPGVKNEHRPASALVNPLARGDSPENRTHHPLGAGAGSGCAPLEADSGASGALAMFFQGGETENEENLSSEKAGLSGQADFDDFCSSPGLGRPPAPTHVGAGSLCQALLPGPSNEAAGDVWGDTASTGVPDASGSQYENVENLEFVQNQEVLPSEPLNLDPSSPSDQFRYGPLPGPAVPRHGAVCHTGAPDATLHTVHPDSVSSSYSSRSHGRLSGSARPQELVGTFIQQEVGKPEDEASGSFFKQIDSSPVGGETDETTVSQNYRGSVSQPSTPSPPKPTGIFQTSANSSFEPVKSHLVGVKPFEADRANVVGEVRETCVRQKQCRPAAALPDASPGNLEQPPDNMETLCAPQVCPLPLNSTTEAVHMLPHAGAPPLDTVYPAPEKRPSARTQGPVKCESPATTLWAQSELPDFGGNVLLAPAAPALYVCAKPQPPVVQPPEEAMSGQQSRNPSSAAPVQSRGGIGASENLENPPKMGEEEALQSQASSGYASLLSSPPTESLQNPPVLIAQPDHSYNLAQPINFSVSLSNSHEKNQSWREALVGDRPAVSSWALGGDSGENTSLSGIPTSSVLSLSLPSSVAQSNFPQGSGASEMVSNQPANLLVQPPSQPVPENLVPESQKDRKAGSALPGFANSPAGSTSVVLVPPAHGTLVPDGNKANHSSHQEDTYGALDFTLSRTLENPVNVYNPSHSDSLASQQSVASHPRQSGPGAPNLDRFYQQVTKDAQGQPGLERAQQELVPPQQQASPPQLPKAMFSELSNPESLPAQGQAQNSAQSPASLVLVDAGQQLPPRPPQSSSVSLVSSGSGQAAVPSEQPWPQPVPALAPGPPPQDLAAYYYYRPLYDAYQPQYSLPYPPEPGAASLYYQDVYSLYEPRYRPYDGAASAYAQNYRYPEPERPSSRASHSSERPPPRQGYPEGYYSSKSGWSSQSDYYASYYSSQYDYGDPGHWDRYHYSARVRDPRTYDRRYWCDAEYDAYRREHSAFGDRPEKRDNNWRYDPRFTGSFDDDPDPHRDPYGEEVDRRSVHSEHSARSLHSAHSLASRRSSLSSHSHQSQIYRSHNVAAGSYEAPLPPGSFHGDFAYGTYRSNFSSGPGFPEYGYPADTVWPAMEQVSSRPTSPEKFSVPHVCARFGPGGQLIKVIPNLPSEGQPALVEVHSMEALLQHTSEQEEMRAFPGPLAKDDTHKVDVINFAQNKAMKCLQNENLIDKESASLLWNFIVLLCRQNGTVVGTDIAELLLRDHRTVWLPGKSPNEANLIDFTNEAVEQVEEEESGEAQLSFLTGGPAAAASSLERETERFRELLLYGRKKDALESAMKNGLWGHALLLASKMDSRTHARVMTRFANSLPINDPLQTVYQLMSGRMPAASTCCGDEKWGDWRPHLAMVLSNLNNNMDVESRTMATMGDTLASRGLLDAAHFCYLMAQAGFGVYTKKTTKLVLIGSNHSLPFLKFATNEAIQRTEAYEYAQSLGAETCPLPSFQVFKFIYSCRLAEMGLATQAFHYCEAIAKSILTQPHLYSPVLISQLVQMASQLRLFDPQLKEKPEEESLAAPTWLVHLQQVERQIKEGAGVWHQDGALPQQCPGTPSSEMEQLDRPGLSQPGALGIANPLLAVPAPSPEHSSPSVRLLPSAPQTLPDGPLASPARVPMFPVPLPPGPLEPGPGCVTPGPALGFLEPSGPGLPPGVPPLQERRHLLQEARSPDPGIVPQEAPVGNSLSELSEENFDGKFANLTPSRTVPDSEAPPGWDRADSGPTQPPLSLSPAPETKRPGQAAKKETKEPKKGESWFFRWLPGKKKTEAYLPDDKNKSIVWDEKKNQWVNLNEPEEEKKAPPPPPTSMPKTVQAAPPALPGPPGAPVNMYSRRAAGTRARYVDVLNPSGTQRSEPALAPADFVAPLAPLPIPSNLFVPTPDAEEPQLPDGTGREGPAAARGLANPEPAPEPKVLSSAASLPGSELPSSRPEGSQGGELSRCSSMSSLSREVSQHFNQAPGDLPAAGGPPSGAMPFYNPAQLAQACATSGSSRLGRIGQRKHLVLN

Columns and labels:
Experiment in all cases: log2 fold change, soluble protein after heating vs DMSO (PISA); higher = thermal stabilisation; K562 lysate, 10 uM; active = over 0.2 and 3.5 SD of the protein, either way, in both replicates (recomputed)
[1] = compound: CS(=O)(=O)CCNCc1ccc(-c2ccc3ncnc(Nc4ccc(OCc5cccc(F)c5)c(Cl)c4)c3c2)o1 [lapatinib]
Outline: (§1)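 Thermal stability, expressed as log-two fold change relative to solvent controls, is given from duplicates. Crude K562 extract in PBS pH 7.4 with 1 mM MgCl2, at 1 mg/mL protein, was treated with 10 μM compound for 30 min and heated in aliquots for 3 min across 48°C-58°C. After pooling, adjustment to 0.5% NP-40 at 4°C and centrifugation at 21,000xg for 90 min, supernatant protein was measured by TMTpro 16plex LC-MS/MS with channel sums equalised.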

[2] = compound: C[C@H](C1=CC=C(C=C1)C(=O)NC2=C3C=CNC3=NC=C2)N
Outline: as §1

[3] = compound: C[C@H](Nc1ncnc2nc[nH]c12)c1cc2cccc(Cl)c2c(=O)n1-c1ccccc1 [duvelisib]
Outline: as §1

[4] = compound: Cc1cc(Nc2cc(CN3CCOCC3)c3nc(C)c(Cc4ccc(Cl)cc4F)n3n2)n[nH]1 [gandotinib]
Outline: as §1

[5] = compound: Cc1cccc(CC(=O)N2CCc3c2ccc(-c2cn(C)c4ncnc(N)c24)c3F)n1
Outline: as §1

[6] = compound: Cc1cn(-c2cc(NC(=O)c3ccc(C)c(Nc4nccc(-c5cccnc5)n4)c3)cc(C(F)(F)F)c2)cn1 [nilotinib]
Outline: as §1

[7] = compound: Cc1nc(Nc2n[nH]c3c2CN(C(=O)N[C@H](CN(C)C)c2ccccc2)C3(C)C)c2sccc2n1
Outline: as §1

[8] = compound: Cc1nc(Nc2ncc(C(=O)Nc3c(C)cccc3Cl)s2)cc(N2CCN(CCO)CC2)n1 [dasatinib]
Outline: as §1

[9] = compound: Cc1ncc(-c2ccnc(Nc3ccc(S(C)(=O)=O)cc3)n2)n1C(C)C
Outline: as §1

[10] = compound: Cn1cc(-c2ccc3c(c2)CCN3C(=O)Cc2cccc(C(F)(F)F)c2)c2c(N)ncnc21
Outline: as §1

[11] = compound: Cn1cncc1[C@@](N)(c1ccc(Cl)cc1)c1ccc2c(c1)c(-c1cccc(Cl)c1)cc(=O)n2C [tipifarnib]
Outline: as §1

[12] = compound: NC(=O)c1cnc(N[C@@H]2CCCC[C@@H]2N)nc1Nc1cccc(-n2nccn2)c1
Outline: as §1

[13] = compound: Cc1cc(Nc2cc(N3CCN(C)CC3)nc(Sc3ccc(NC(=O)C4CC4)cc3)n2)n[nH]1 [tozasertib]
Outline: as §1

[14] = compound: NC1(c2ccc(-c3nc4ccn5c(=O)[nH]nc5c4cc3-c3ccccc3)cc2)CCC1
Outline: as §1

[15] = compound: CS(=O)(=O)N1CCN(Cc2cc3nc(-c4cccc5[nH]ncc45)nc(N4CCOCC4)c3s2)CC1 [pictilisib]
Outline: as §1

[16] = compound: C[C@@H](Oc1cc(-c2cnn(C3CCNCC3)c2)cnc1N)c1c(Cl)ccc(F)c1Cl [crizotinib]
Outline: as §1

[17] = compound: Cc1ccc(-n2nc(C(C)(C)C)cc2NC(=O)Nc2ccc(OCCN3CCOCC3)c3ccccc23)cc1 [doramapimod]
Outline: as §1

[18] = compound: Cc1ccc(NC(=O)c2ccc(CN3CC[C@H](N(C)C)C3)c(C(F)(F)F)c2)cc1Nc1nccc(-c2cncnc2)n1 [bafetinib]
Outline: as §1

[19] = compound: Cn1cc(CNCC2CCN(c3ncc(C(=O)NO)cn3)CC2)c2ccccc21 [quisinostat]
Outline: as §1

[20] = compound: NC(=O)Nc1cc(-c2cccc(F)c2)sc1C(=O)N[C@H]1CCCNC1
Outline: as §1

Measured: log2 fold change

SELENOO (UniProt Q9BVL4)
inactive: [1] -0.004 | [2] -0.023 | [3] -0.139 | [4] -0.028 | [5] -0.105 | [6] -0.201 | [7] 0.062 | [8] 0.09 | [9] -0.094 | [10] -0.149 | [11] 0.03 | [12] -0.156

SAE1 (UniProt M0R286)
inactive: [1] -0.102 | [3] 0.032 | [13] 0.148 | [8] 0.074 | [10] 0.107 | [12] 0.089 | [14] -0.044

SEC14L1 isoform 2 (UniProt Q92503)
inactive: [1] -0.16 | [12] 0.06

SDCBP isoform 2 (UniProt O00560)
inactive: [15] -0.006 | [16] -0.062 | [2] -0.074 | [3] -0.019 | [4] 0.066 | [17] 0.038 | [18] -0.057 | [5] 0.328 | [6] 0.141 | [7] 0.007 | [8] 0.052 | [9] -0.261 | [10] 0.042 | [19] 0.019 | [11] 0.108 | [20] -0.049 | [14] -0.124

SDCCAG8 (UniProt S4R323)
inactive: [16] -0.017 | [17] 0.112 | [19] 0.079 | [20] 0.071 | [14] 0.071

SCGB1D1 (UniProt O95968)
inactive: [14] -0.035

SEM1 (UniProt P60896)
inactive: [14] -0.058

SAFB2 (UniProt K7EQU4)
inactive: [15] -0.025 | [16] -0.055 | [3] -0.055 | [17] -0.017 | [18] 0.039 | [6] 0.074 | [7] -0.032 | [8] -0.006 | [9] 0.005 | [10] -0.149 | [19] -0.13 | [11] 0.042 | [20] 0.062

SCGB2A1 (UniProt O75556)
inactive: [1] -0.02 | [2] 0.333 | [4] 0.022 | [5] 0.606 | [12] 0.101

SELPLG isoform 2 (UniProt Q14242)
inactive: [1] 0.089 | [12] -0.029

SALL1 (UniProt Q9NSC2)
inactive: [2] 0.591 | [4] -0.223 | [13] -0.016 | [5] -0.417 | [6] -0.11 | [7] -0.02 | [9] 0.025 | [11] 0.173

SAP30L (UniProt Q9HAJ7)
inactive: [16] -0.029 | [17] -0.047 | [19] 0.075 | [20] -0.237 | [14] 0.055

SENP7 (UniProt Q9BQF6)
inactive: [16] 0.143 | [2] -0.211 | [3] 0.108 | [4] -0.024 | [13] 0.036 | [17] 0.076 | [5] 0.139 | [6] 0.231 | [7] -0.142 | [8] -0.033 | [9] 0.052 | [10] 0.122 | [19] -0.103 | [11] 0.13 | [20] 0.098

SENP2 (UniProt Q9HC62)
inactive: [6] 0.031 | [7] 0.009 | [9] 0.249 | [11] -0.257

SARM1 (UniProt Q6SZW1)
inactive: [1] -0.119 | [2] 0.085 | [4] 0.025 | [5] -0.03 | [6] -0.065 | [7] -0.033 | [9] -0.042 | [11] -0.148 | [12] -0.07 | [14] 0.086

SCYL3 isoform 2 (UniProt Q8IZE3)
inactive: [15] 0.017 | [16] -0.128 | [2] -0.034 | [3] 0.056 | [4] -0.065 | [13] 0.002 | [17] 0.019 | [18] -0.034 | [5] 0.162 | [6] -0.053 | [7] 0.004 | [8] -0.113 | [9] 0.012 | [10] 0.031 | [19] -0.115 | [11] -0.152 | [20] 0.024 | [14] -0.031

SELENON (UniProt Q9NZV5)
inactive: [3] 0.039 | [8] -0.21 | [10] 0.073 | [14] -0.033

SAMD8 (UniProt Q96LT4)
inactive: [14] -0.117

SAGE1 (UniProt Q9NXZ1)
inactive: [16] 0.053 | [2] 0.003 | [3] 0.128 | [4] 0.017 | [13] -0.024 | [17] 0.08 | [5] 0.017 | [6] 0.064 | [7] 0.007 | [8] -0.046 | [9] 0.073 | [10] -0.069 | [19] 0.008 | [11] -0.071 | [20] 0.032 | [14] -0.127

SCG3 (UniProt Q8WXD2)
inactive: [16] 0.014 | [2] -0.048 | [3] 0.147 | [4] 0.003 | [13] 0.04 | [17] -0.072 | [5] 0.059 | [6] 0.038 | [7] 0.12 | [8] 0.004 | [9] -0.02 | [10] 0.006 | [19] 0.008 | [11] -0.045 | [20] -0.039 | [14] -0.005

SCOC (UniProt Q9UIL1)
inactive: [16] 0.02 | [3] 0.118 | [17] -0.017 | [8] -0.125 | [10] 0.032 | [19] -0.02 | [20] -0.025 | [14] -0.025

SEL1L3 (UniProt Q68CR1)
inactive: [15] -0.036 | [16] -0.085 | [2] 0.092 | [3] 0.039 | [4] -0.04 | [13] 0.066 | [17] -0.066 | [18] -0.07 | [5] 0.025 | [6] 0.044 | [7] -0.146 | [8] -0.102 | [9] -0.088 | [10] -0.028 | [19] -0.064 | [11] -0.177 | [20] 0.11 | [14] 0.003

SAV1 (UniProt Q9H4B6)
inactive: [6] -0.06 | [7] 0.054 | [9] 0.044 | [11] 0.054

SBNO2 (UniProt Q9Y2G9)
inactive: [2] 0.229 | [4] -0.034 | [5] -0.261

Reprinted at random: 2 entries already listed.
SELENOO (UniProt Q9BVL4)
inactive: [1] -0.004 | [2] -0.023 | [3] -0.139 | [4] -0.028 | [5] -0.105 | [6] -0.201 | [7] 0.062 | [8] 0.09 | [9] -0.094 | [10] -0.149 | [11] 0.03 | [12] -0.156

SEM1 (UniProt P60896)
inactive: [14] -0.058

(list continues)

SACS (UniProt Q9NZJ4)
inactive: [6] 0.058 | [7] 0.042 | [9] 0.007 | [11] 0.014

SBSN (UniProt Q6UWP8)
inactive: [2] 0.312 | [4] -0.197 | [5] 0.132 | [14] 0.371

SEMA4G isoform 2 (UniProt Q9NTN9)
inactive: [16] -0.084 | [2] 0.036 | [3] -0.294 | [4] 0.019 | [13] 0.082 | [17] -0.053 | [5] -0.024 | [8] 0.006 | [10] 0.235 | [19] 0.074 | [20] 0.085 | [14] 0.077

SEC16A isoform 3 (UniProt O15027)
inactive: [3] 0.024 | [8] -0.026 | [10] -0.039

SEPTIN8 (UniProt F8W8I8)
inactive: [1] -0.016 | [2] -0.257 | [3] -0.035 | [4] 0.215 | [5] 0.091 | [6] 0.077 | [7] 0.091 | [8] -0.134 | [9] -0.109 | [10] 0.024 | [11] -0.001 | [12] 0.147 | [14] -0.075
